Laboratory results: article doi:10.1101/2023.08.16.553481
These are yes or no findings as the source states them, for the method shown. Binding seen in cells or lysates may run through a third protein. Binding can be weak; no strength is given. Sequences can lack the tags named with a protein.

Biological target: T1, zTie2-Fc-His (immunoglobulin Fc-domain tagged soluble extracellular domain of zebrafish Tie2) (zebrafish) (UniProt O73791)
T1 sequence: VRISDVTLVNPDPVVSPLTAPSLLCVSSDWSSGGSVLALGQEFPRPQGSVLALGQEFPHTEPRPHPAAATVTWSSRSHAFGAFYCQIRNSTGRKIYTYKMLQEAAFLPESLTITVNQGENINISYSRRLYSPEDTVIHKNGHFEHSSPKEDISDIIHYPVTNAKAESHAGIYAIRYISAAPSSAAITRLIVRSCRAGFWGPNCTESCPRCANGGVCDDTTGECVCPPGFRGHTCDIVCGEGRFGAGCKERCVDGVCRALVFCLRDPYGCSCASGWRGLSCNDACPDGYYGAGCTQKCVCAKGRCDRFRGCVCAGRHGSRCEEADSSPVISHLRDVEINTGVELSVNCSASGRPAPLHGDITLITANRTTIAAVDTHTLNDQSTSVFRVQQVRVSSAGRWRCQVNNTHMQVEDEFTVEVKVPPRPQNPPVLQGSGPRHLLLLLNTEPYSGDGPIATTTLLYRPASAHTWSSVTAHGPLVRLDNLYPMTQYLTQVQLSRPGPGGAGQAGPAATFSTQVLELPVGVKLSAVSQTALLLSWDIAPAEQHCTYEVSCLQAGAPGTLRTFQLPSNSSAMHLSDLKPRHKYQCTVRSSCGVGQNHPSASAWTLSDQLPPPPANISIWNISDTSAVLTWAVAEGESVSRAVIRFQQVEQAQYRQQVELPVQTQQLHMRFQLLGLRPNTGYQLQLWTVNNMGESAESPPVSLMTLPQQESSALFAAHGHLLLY
Experiment: pull-down

- binding: binds
Substance: FLAG-zAngpt2a (zebrafish Angpt2a without signal sequence) (ligand)
